Assay results as given in paper PMC12061330.
These are yes or no findings as the source states them, for the method shown. A result given as binding can be weak or reduced; the word gives no strength. Sequences can lack the tags named with a protein.

The chains behind the UniProt entries cited, without tags or fusion partners. Where a name states a change or a piece, a line headed by the entry shows the natural chain unless it says otherwise.
UniProt P01106: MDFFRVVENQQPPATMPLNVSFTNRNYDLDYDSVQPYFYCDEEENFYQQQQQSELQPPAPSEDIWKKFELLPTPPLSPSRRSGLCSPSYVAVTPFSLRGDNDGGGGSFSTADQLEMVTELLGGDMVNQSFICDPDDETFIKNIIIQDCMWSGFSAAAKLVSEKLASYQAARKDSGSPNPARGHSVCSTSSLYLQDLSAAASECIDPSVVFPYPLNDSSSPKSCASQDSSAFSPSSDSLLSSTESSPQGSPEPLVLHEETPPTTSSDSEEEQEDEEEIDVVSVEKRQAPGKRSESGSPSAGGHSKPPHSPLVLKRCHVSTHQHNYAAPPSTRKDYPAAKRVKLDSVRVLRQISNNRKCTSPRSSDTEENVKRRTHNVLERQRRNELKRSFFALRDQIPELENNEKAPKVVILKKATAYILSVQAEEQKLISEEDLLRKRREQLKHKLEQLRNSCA

Experiments:
Assay in all cases: pull-down; Glutathione Sepharose 4B beads incubated with purified GST‐tagged C‐MYC proteins and then His‐S‐tagged PDCD11 proteins; washed 4 times with 1% Triton X‐100 in PBS; blots with anti‐S‐Tag and anti‐GST; both purified
[1] = target: C‐MYC (81–147) (GST‐tagged, recombinant) (UniProt P01106)
[2] = target: C‐MYC (1–147) (GST‐tagged, recombinant) (UniProt P01106)
[3] = target: C‐MYC (1–80) (GST‐tagged, recombinant) (UniProt P01106)

Measured: binding

PDCD11‐FL (His‐S‐tagged, recombinant) (from UniProt Q14690 1-1871)
binds: all assays above

B1: PDCD11 (1033–1431) (His‐S‐tagged, recombinant) (domain or fragment, UniProt Q14690 1033-1431)
chain: LSIGDMVTGTVKSIKPTHVVVTLEDGIIGCIHASHILDDVPEGTSPTTKLKVGKTVTARVIGGRDMKTFKYLPISHPRFVRTIPELSVRPSELEDGHTALNTHSVSPMEKIKQYQAGQTVTCFLKKYNVVKKWLEVEIAPDIRGRIPLLLTSLSFKVLKHPDKKFRVGQALRATVVGPDSSKTLLCLSLTGPHKLEEGEVAMGRVVKVTPNEGLTVSFPFGKIGTVSIFHMSDSYSETPLEDFVPQKVVRCYILSTADNVLTLSLRSSRTNPETKSKVEDPEINSIQDIKEGQLLRGYVGSIQPHGVFFRLGPSVVGLARYSHVSQHSPSKKALYNKHLPEGKLLTARVLRLNHQKNLVELSFLPGDTGKPDVLSASLEGQLTKQEERKTEAEERDQKG
binds: all assays above
